PubChem BioAssay AID1347076 (National Center for Advancing Translational Sciences (NCATS), 2019)
Values joined by “and” are separate entries in the source; they are usually repeats but may differ in a detail not shown here. Equal values may be shown once. Out of some 400,000 compounds screened, about 13,000 (3.2%) were called active. The inconclusive results got no clear call from the source; some entries with a clear call stand among them for comparison. Calls come from the whole dose curve; as a rule, active = well fitted cell-killing curve with a large enough effect; inconclusive = small, poorly fitted or top-dose-only effect, or effect the other way; inactive = flat fitted curve, though single readings scatter. Potencies of inconclusive entries are doubtful fits and often do not repeat.

Assay: qHTS assay for MDR1-selective chemotherapeutics: Primary screen using the drug-selected MDR subline cells KB-V1; note: nearly all actives have a fitted effect of over 60% in size
Details: KB-V1 MDR cells viability, CellTiter-Glo, 72 h; activity change, negative = cytotoxicity: at 46.1 µM (top of the series)
How it was run: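 KB-V1 cells (P-gp-expressing MDR subline of KB-3-1) in phenol-red-free DMEM with 10% FBS were exposed to library compounds over a concentration series for 72 h at 37 degrees C. Viability read by CellTiter-Glo luminescence; concentration-effect curves fitted after normalization.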
% is set by controls: 0 for no effect and ±100 for the full control effect; potency is the fitted concentration of half-maximal effect.

Row | Structure (SMILES) | Potency | activity change, negative = cytotoxicity
1 | C=CCSc1nnc(COc2ccc(=O)n(-c3ccccc3)n2)n1CC | inactive | 
2 | Cc1ccccc1-c1cc2nc(NCc3ccc4occc4c3)n(C)c(=O)c2s1 | inconclusive: 8.2 µM [cytotoxic, partial curve] | 
3 | Cc1cc2c(ncn2C)c(NS(=O)(=O)c2ccccc2Cl)c1C | inconclusive: 20.6 µM [cytotoxic, partial curve, poor fit] | 
4 | Cc1cccc(CN2CCCC(C(=O)N3CCc4ccccc4C3)C2)c1 (stereo not drawn) | inactive | 
5 | Cc1ccc2nc(-c3cccc(NS(C)(=O)=O)c3)cc(-c3ccccc3)c2c1 | active: 18.4 µM | 
6 | NC(=O)C1(NC(=O)[C@@H]2CC3(CC(c4cccc(NC(=O)c5cc([N+](=O)[O-])cc([N+](=O)[O-])c5)c4)=NO3)CN2C(=O)c2ccccc2)CC1 (stereo partly drawn) | inconclusive: 29.1 µM [rising, single point] | 
7 | O=C(/C=C/c1ccc2c(c1)OCO2)Nc1nncs1 | inactive | 
8 | Cc1ccc(-n2nnc3c(=O)n(Cc4ccccn4)cnc32)cc1C | inconclusive: 29.1 µM [cytotoxic, single point] | 
9 | Cc1ccc2oc(C(=O)NCc3ccc4c(c3)OCO4)c(C)c2c1 | inconclusive: 29.1 µM [cytotoxic, single point] | 
10 | N#Cc1ccc(C(=O)Nc2cc(-c3ccccc3)nn2-c2ccccc2)cc1 | inconclusive: 0.731 µM [rising, full curve] | 
11 | O=C(Nc1ccc(-c2csc(Nc3ccc(Cl)cc3)n2)cc1)c1cc([N+](=O)[O-])cc(C(F)(F)F)c1 | inconclusive: 16.4 µM [cytotoxic, single point] | 
12 | COc1ccc(/C=N/NC(=O)c2ccoc2C)cc1O | inconclusive: 29.1 µM [cytotoxic, single point] | 
13 | Cc1cc(C)c(C(=O)C2OC(=O)C(C)(C)C(=O)C2(C)C)c(C)c1 (stereo not drawn) | inactive | 
14 | O=C(c1cccc(C(F)(F)F)c1)C1CCCN(Cc2cccn2-c2ccccn2)C1 (stereo not drawn) | inconclusive: 29.1 µM [cytotoxic, single point] | 
15 | COc1ccc2nc(C)cc(SCC(=O)NNC(=O)COc3ccccc3)c2c1 | inconclusive: 16.4 µM [cytotoxic, partial curve, poor fit] | 
16 | O=C(Nc1ccc2c(c1)OCO2)c1cc(C2CCCCN2C(=O)CCc2ccccc2)on1 (stereo not drawn) | inconclusive: 2.91 µM [cytotoxic, full curve] | 
17 | COc1ccc(CCNCC(=O)Nc2ccc(OC(F)(F)F)cc2)cc1OC | inactive | 
18 | CCc1nc(C)cn1S(=O)(=O)c1ccc2c(c1)OCCO2 | inactive | 
19 | O=C(Cc1cccs1)N/N=C/C(Br)=C/c1ccccc1 | inactive | 
20 | COc1cc(NC(=S)Nc2ccccn2)cc(OC)c1OC | inconclusive: 14.6 µM [cytotoxic, partial curve] | 
21 | O=C(c1ccc2c(c1)CCN2S(=O)(=O)c1ccc(Cl)cc1)N1CCN(c2ccc(F)cc2)CC1 | inconclusive: 2.91 µM [cytotoxic, partial curve, poor fit] | 
22 | CCOC(=O)N1CCN(c2ccc(S(=O)(=O)N(Cc3ccccc3)Cc3ccccc3)cn2)CC1 | active: 5.8 µM | 
23 | CN(C)CCCN(C(=O)CCc1ccccc1)c1nc2ccc(Cl)cc2s1 | active: 23.1 µM | 

Row | Structure (SMILES) | Potency | activity change, negative = cytotoxicity
24 | Cc1sc2nc(CN3CCOCC3)nc(N3CCOCC3)c2c1C | inconclusive: 20.6 µM [cytotoxic, partial curve, poor fit] | 
25 | COc1ccc(N2CCN(C(=O)c3cc(N4C(=O)C5C6CCC(C6)C5C4=O)ccc3Cl)CC2)cc1 (stereo not drawn) | active: 4.61 µM | 
26 | O=C(Nc1cccc(-c2cn3ccccc3n2)c1)c1cccc(Cl)c1 | active: 9.2 µM | 
27 | CC(=O)N1CCCN(Cc2cn(-c3ccc(C)cc3)nc2-c2ccc(F)cc2)CC1 | inactive | 
28 | CCCc1c(C(=O)N/N=C(\C)CCc2ccc(OC)cc2)nnn1-c1nonc1N | inconclusive: 18.4 µM [rising, single point] | 
29 | COc1ccc(NC(=O)C2CCC2)cc1S(=O)(=O)N1CCOCC1 | inconclusive: 29.1 µM [rising, single point] | 
30 | CC(N=C1NS(=O)(=O)c2ccccc21)C(=O)N1CCc2ccccc2C1 (stereo not drawn) | inconclusive: 14.6 µM [cytotoxic, partial curve, poor fit] | 
31 | O=C(CCC(=O)Nc1ccc(Br)cc1)N/N=C/c1ccccc1O | inconclusive: 6.51 µM [cytotoxic, partial curve] | 
32 | CC(=O)O[C@]1(C(C)=O)CC[C@H]2[C@@H]3C[C@H](C)C4=CC(=O)CC[C@]4(C)[C@H]3CC[C@@]21C | inconclusive: 13 µM [cytotoxic, partial curve, poor fit] and inconclusive: 9.2 µM [cytotoxic, partial curve, poor fit] | 
33 | CCOc1ccc(NC(=O)C2CCCN(C(=O)NCc3ccccc3)C2)cc1 (stereo not drawn) | inconclusive: 11.6 µM [cytotoxic, partial curve] | 
34 | C=CCN1C(=O)NC(c2ccccc2)(C(F)(F)F)S/C1=C(\C#N)c1nnc(N2CCOCC2)n1-c1ccccc1 (stereo not drawn) | inconclusive: 29.1 µM [rising, single point] | 
35 | O=C(Nc1cccc(NC(=O)c2ccco2)c1)c1cccc(Br)c1 | inconclusive: 13 µM [cytotoxic, single point] | 
36 | CCCCCCCCS(=O)C1CCS(=O)(=O)C1 (stereo not drawn) | inactive | 
37 | COc1ccc(C(=O)NCc2ccccn2)cc1 | inactive | 
38 | O=C(O)C1(Nc2ccc(Cl)cc2)CCCC1 | inconclusive: 1.64 µM [rising, full curve, poor fit] | 
39 | CC1CCN(c2ccc(NC(=O)c3cccnc3)cc2)CC1 | active: 18.4 µM | 
40 | CCOCc1c(C(=O)Nc2ccccc2N2CCN(C)CC2)oc2ccccc12 | inconclusive: 25.9 µM [cytotoxic, partial curve, poor fit] | 
41 | O=C(CSc1nc(-c2ccccc2)cs1)N1CCN(C(=O)c2ccco2)CC1 | active: 18.4 µM | 
42 | COc1ccc(NC(=O)c2cc3sccc3n2Cc2ccc(F)cc2)cc1OC | inconclusive: 23.1 µM [cytotoxic, single point] | 
43 | Cc1cccc(C)c1NS(=O)(=O)c1ccc2c(c1)C(=O)c1ccccc1C2=O | inconclusive: 2.91 µM [cytotoxic, full curve, poor fit] | 
44 | Nc1c(C(=O)NCC2CCCO2)c2nc3ccccc3nc2n1-c1ccccc1 (stereo not drawn) | inconclusive: 29.1 µM [cytotoxic, single point] | 
45 | CCOc1cc(C(=O)NCc2ccncc2)cc(OCC)c1OCC | active: 7.31 µM | 
46 | C/C(=N\O)c1cc(Cl)cc(Cl)c1O | inactive | 

Row | Structure (SMILES) | Potency | activity change, negative = cytotoxicity
47 | COc1cccc2c1C(=O)c1c(O)c3c(c(O)c1C2=O)C[C@@](O)(C(=O)CO)C[C@@H]3O[C@H]1C[C@H](N)[C@H](OC2CCCCO2)[C@H](C)O1 (stereo partly drawn) | inconclusive: 3.66 µM [cytotoxic, full curve] | 
48 | COc1cccc(C(=O)Nc2ccc3oc(-c4cccc5c(Br)cccc45)nc3c2)c1 | inconclusive: 5.8 µM [cytotoxic, partial curve, poor fit] | 
49 | CC(C(=O)N1CCc2ccccc21)N1CCN(S(=O)(=O)c2ccc(C(F)(F)F)cc2)CC1 (stereo not drawn) | inconclusive: 14.6 µM [cytotoxic, partial curve, poor fit] | 
50 | COc1ccccc1N1CCN(C(=O)c2cnn(-c3ccc(F)cc3F)c2C2CCNCC2)CC1 | inconclusive: 29.1 µM [rising, single point] | 
51 | COc1ccc2nc(CCN(C)C(=O)C3CCC(=O)N(Cc4cccc(F)c4)C3)[nH]c2c1 (stereo not drawn) |  | inconclusive: 31.6%
52 | Cc1ccc(NC(=O)CS(=O)CC(=O)NC23CC4CC(CC(C4)C2)C3)cc1 (stereo not drawn) | inactive | 
53 | CCOC(=O)N1CCC(NS(=O)(=O)c2ccc3c(c2)oc(=O)n3C)CC1 | inactive | 
54 | O=C(Cc1ccccc1)NC(c1ccco1)c1c(O)ccc2ccccc12 (stereo not drawn) | inconclusive: 29.1 µM [cytotoxic, single point] | 
55 | CC1CCCN(c2nc3c(c(=O)n(C)c(=O)n3C)n2CCSc2nc3ccccc3o2)C1 (stereo not drawn) | active: 2.59 µM | 
56 | Cc1cccc(Cn2nc(C(C)(C)C)cc2C(=O)Nc2ccc(F)cc2)c1 | inconclusive: 32.6 µM [cytotoxic, single point] | 
57 | CC1(c2cccc3ccccc23)OC(=O)c2ccccc21 (stereo not drawn) | active: 18.4 µM | 
58 | CCCCN(C(=O)CCC(=O)Nc1cc(C)on1)C(C(=O)NC1CCCC1)c1ccc(OC)cc1 (stereo not drawn) | inconclusive: 16.4 µM [cytotoxic, single point] | 
59 | COc1ccc(S(=O)(=O)Nc2c(C)cc(C)cc2C)c2cccnc12 | inconclusive: 2.59 µM [cytotoxic, partial curve, poor fit] | 
60 | CCOC(=O)C1NN=C(C(=O)c2ccccc2)C1c1ccccc1 (stereo not drawn) | active: 20.6 µM | 
61 | CCN(CC)C(=O)COc1ccc2c3c(c(=O)oc2c1)CCCC3 | inactive | 
62 | Cc1cccc(C(=O)c2cn[nH]c2-c2ccccc2O)c1 | inconclusive: 13 µM [rising, single point] | 
63 | COc1ccc(C(CNC(=O)c2cccc(S(=O)(=O)N3CCCc4ccccc43)c2)N(C)C)cc1 (stereo not drawn) | active: 2.31 µM | 
64 | CCc1ccccc1NC1=NCC(=O)N1C1CCCC1 | inactive | 
65 | CCOC(=O)c1sc(=S)n(-c2ccccc2)c1N | inconclusive: 29.1 µM [cytotoxic, single point] | 
66 | C=CCc1cc(Cl)ccc1OCCCNC(C)CC (stereo not drawn) | active: 13 µM | 
67 | COc1cc(OC)c(C(=O)Nc2cc(S(=O)(=O)N3CCOCC3)ccc2N2CCN(C)CC2)cc1OC | inconclusive: 18.4 µM [rising, single point] | 
68 | O=C(N/N=C/c1ccccc1)c1ccc(N2CCCC2=O)cc1 | inactive | 
